Experimental findings from PMC12667544 are described below.

The chains behind the UniProt entries cited, without tags or fusion partners. Where a name states a change or a piece, a line headed by the entry shows the natural chain unless it says otherwise.
UniProt Q61321: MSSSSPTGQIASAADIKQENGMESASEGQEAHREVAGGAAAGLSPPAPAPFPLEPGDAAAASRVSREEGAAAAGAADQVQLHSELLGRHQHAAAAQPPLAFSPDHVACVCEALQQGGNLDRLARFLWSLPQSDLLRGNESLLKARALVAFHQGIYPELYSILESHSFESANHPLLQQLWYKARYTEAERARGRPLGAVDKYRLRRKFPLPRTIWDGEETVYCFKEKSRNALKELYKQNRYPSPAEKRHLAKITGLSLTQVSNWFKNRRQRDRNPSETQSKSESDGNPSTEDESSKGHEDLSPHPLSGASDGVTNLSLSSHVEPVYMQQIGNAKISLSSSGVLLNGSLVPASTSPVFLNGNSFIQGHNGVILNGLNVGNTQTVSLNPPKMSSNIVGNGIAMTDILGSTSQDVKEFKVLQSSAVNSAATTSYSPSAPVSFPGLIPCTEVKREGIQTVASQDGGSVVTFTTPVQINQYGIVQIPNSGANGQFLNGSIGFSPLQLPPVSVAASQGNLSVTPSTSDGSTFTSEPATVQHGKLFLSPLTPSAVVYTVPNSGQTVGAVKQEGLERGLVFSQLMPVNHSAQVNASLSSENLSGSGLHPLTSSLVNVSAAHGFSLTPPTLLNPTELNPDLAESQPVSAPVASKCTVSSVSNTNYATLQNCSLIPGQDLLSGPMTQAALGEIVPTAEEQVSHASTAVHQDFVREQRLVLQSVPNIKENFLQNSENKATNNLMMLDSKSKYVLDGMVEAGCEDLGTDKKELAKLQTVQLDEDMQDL

Construct, isoform or probe ends are uncertain for at least one entry. For part of these data: Weaker means in comparison with the reference protein, sequence or condition of that experiment.

Series [1] addresses His-SIX4 (Mus musculus) (UniProt Q61321). Nature of the series: competition EMSA. The conditions noted are these: unlabeled, EMSA: 1 uM labeled probe, 0.5-4 ug His-SIX4 in 10 uL (Beyotime kit buffer, salt not stated), 25 C, 20 min, 4% native PAGE, 0.5x TBE pH 8.0, recombinant protein, protein details: His.
The target is the same in series [2]. Nature of the series: EMSA. The conditions noted are these: EMSA: 1 uM labeled probe, 0.5-4 ug His-SIX4 in 10 uL (Beyotime kit buffer, salt not stated), 25 C, 20 min; 4% native PAGE, 0.5x TBE pH 8.0; recombinant protein; protein details: His; label: 5' biotin.

Turning to “GAGACCAGGCTAGTTGCAGCCTCGATGACTACCGACCTCTAATGCCTAAT (double strand) [Rps27l-Mut (unlabeled mutant competitor)]”, in the series with His-SIX4 (Mus musculus) [1] (added before labeled N1, signal decreased only), the binding result was “binds more weakly”. Consider “GAGACCAGGCTAGTTGCAGCCTCGGGTCTGGTTTCCCTCTAATGCCTAAT (double strand) [Rps27l-Cold (unlabeled competitor)]”, for which the binding result with His-SIX4 (Mus musculus) [1] (added before labeled N1, signal disappeared) is given as “binds”.

On to “GAGACCAGGCTAGTTGCAGCCTCGGGTCTGGTTTCCCTCTAATGCCTAAT (double strand) [Rps27l-biotin (wild-type probe)]”, for which, in the series with His-SIX4 (Mus musculus) [2], the binding result is given as “binds”.
